Test results: PubChem BioAssay AID330 (DTP/NCI, 2004)
The list is a part of this screen's results and no random one: it gathers tests that were run many times, whatever their T/C, doses with no T/C, and many T/C values between a quarter and a half above the control. Further doses and runs are listed elsewhere. T/C is the treated group as % of the vehicle group. Some doses have a count of surviving animals in place of a T/C: the source holds a T/C of zero for them, seemingly a mark for toxic or unscored doses. Some survivor counts are full or nearly so, which does not show that the dose was tolerated: the source hardly ever lists a survival T/C far under the control, and the zero likely stands for such cases as well. Survivors were counted at the toxicity check, usually on the fifth day, unless a day is given; later deaths do not show. Schedules are NCI's codes, read here as Q, the interval in days (D) or hours (H), X, the number of doses. Some entries were tested several times; the values are given in rising order. For survival time, this PubChem deposit counts one and a half times the control or more as active, and values a quarter to a half above the control carry no call in these data; other NCI protocols may use other cut-offs. Some T/C values carry the count of animals alive at the toxicity check (mostly the fifth day); where none is given, no animal had died by that day.

Test system: P388 leukemia ip, CD2F1 mice, survival T/C
Assay: NCI In Vivo Anticancer Drug Screen. Data for tumor model P388 Leukemia (intraperitoneal) in CD2F1 (CDF1) mice
Conditions: T/C endpoint: median survival time, higher T/C = longer survival
[1] = dose: 240.0 mg/kg/injection, schedule: Q01DX005 (ip), vehicle: saline with Tween-80
[2] = dose: 400.0 mg/kg/injection, schedule: Q04DX003 (ip), vehicle: saline with Tween-80
[3] = dose: 100.0 mg/kg/injection, schedule: Q01DX009 (ip), vehicle: Klucel (hydroxypropylcellulose) (HPC)

Structure (SMILES): C[N+]1(C)CCC(Cc2ccccc2)CC1
- survivor count (dose: 25.0 mg/kg/injection, schedule: Q01DX005 (ip), vehicle: saline): 0 of 6
- survivor count (dose: 50.0 mg/kg/injection, schedule: Q01DX005 (ip), vehicle: saline): 0 of 6
- survivor count (dose: 100.0 mg/kg/injection, schedule: Q01DX005 (ip), vehicle: saline): 0 of 6
- survivor count (dose: 200.0 mg/kg/injection, schedule: Q01DX005 (ip), vehicle: saline): 0 of 6

Structure (SMILES): CN1CC[CH2][Sn]([Cl])([Cl])[CH2]CC1
- survivor count (dose: 15.0 mg/kg/injection, schedule: Q01DX005 (ip), vehicle: saline with Tween-80): 0 of 6
- survivor count (dose: 60.0 mg/kg/injection, schedule: Q01DX005 (ip), vehicle: saline with Tween-80): 0 of 6
- survivor count (dose: 120.0 mg/kg/injection, schedule: Q01DX005 (ip), vehicle: saline with Tween-80): 0 of 6
- survivor count [1]: 0 of 6

Structure (SMILES): CCC(=O)NC(C)C(=O)O (stereo unspecified)
- survivor count (dose: 50.0 mg/kg/injection, schedule: Q01DX009 (ip), vehicle: saline): 4 of 6

Structure (SMILES): O=C(CC(=NCC(O)CN=C(CC(=O)c1ccccc1)c1ccccc1)c1ccccc1)c1ccccc1.[Ni] (stereo unspecified)
- survivor count (dose: 100.0 mg/kg/injection, schedule: Q04DX003 (ip), vehicle: saline with Tween-80): 6 of 6
- survivor count [2]: 5 of 6

Structure (SMILES): COc1cccc2c1C(=O)c1c(O)c3c(c(O)c1C2=O)CC(O)(C(C)=O)CC3OC1CC(NC(=O)CN(C)C)C(O)C(C)O1 (stereo unspecified)
- T/C (dose: 1.0 mg/kg/injection, schedule: Q01DX009 (ip), vehicle: water): 127 % of control
- T/C (dose: 2.0 mg/kg/injection, schedule: Q01DX009 (ip), vehicle: water): 140 % of control
- T/C (dose: 4.0 mg/kg/injection, schedule: Q01DX009 (ip), vehicle: water): 146 % of control
- T/C (dose: 8.0 mg/kg/injection, schedule: Q01DX009 (ip), vehicle: water): 149 % of control

Structure (SMILES): Cc1ccc(S(=O)CF)cc1 (stereo unspecified)
- survivor count (dose: 200.0 mg/kg/injection, schedule: Q04DX003 (ip), vehicle: saline with Tween-80): 1 of 6
- survivor count [2]: 0 of 6

Structure (SMILES): O=C(O)CCCc1cc(I)c(N(CCCl)CCCl)c(I)c1
- T/C (dose: 50.0 mg/kg/injection, schedule: Q01DX009 (ip), vehicle: saline with Tween-80): 125 % of control
- T/C (dose: 100.0 mg/kg/injection, schedule: Q01DX009 (ip), vehicle: saline with Tween-80): 127 and 133 % of control
- survivor count (dose: 200.0 mg/kg/injection, schedule: Q01DX009 (ip), vehicle: saline with Tween-80): 5 of 6

Structure (SMILES): CC1(C(F)(F)F)CC(=O)NN1 (stereo unspecified)
- survivor count (dose: 100.0 mg/kg/injection, schedule: Q01DX009 (ip), vehicle: saline): 2 of 6

Structure (SMILES): O=C1NC(O)c2cccc([N+](=O)[O-])c2O1 (stereo unspecified)
- survivor count (dose: 400.0 mg/kg/injection, schedule: Q01DX005 (ip), vehicle: saline with Tween-80): 0 of 5

Structure (SMILES): COC(=O)C1(F)C(=O)NC(=O)NC1O (stereo unspecified)
- survivor count (dose: 60.0 mg/kg/injection, schedule: Q01DX005 (ip), vehicle: saline): 0 of 6
- survivor count (dose: 120.0 mg/kg/injection, schedule: Q01DX005 (ip), vehicle: saline): 0 of 6
- survivor count (dose: 240.0 mg/kg/injection, schedule: Q01DX005 (ip), vehicle: saline): 0 of 6

Structure (SMILES): Cc1ccc(N2CCN(CCCC3(c4ccccc4)OCCO3)CC2C)cc1Cl (stereo unspecified)
- T/C [2]: 125 % of control

Structure (SMILES): CCN(CC)CCCNc1c2c(nc3c(Cl)cccc13)CCCC2
- survivor count (dose: 200.0 mg/kg/injection, schedule: Q01DX005 (ip), vehicle: saline with Tween-80): 1 of 6

Structure (SMILES): O=C1c2ccccc2C(=O)c2c(NCCCNCCO)ccc(NCCCNCCO)c21
- T/C (dose: 25.0 mg/kg/injection, schedule: Q01DX009 (ip), vehicle: other): 132 % of control
- T/C (dose: 25.0 mg/kg/injection, schedule: Q01DX009 (ip), vehicle: water): 128 % of control [5 of 6 alive]
- T/C (dose: 30.0 mg/kg/injection, schedule: Q01DX009 (ip), vehicle: water): 127 % of control
- T/C (dose: 50.0 mg/kg/injection, schedule: Q01DX009 (ip), vehicle: other): 132 % of control
- T/C (dose: 50.0 mg/kg/injection, schedule: Q01DX009 (ip), vehicle: water): 133 % of control
- T/C (dose: 60.0 mg/kg/injection, schedule: Q01DX005 (ip), vehicle: other): 128 % of control [5 of 6 alive]
- T/C (dose: 60.0 mg/kg/injection, schedule: Q01DX009 (ip), vehicle: water): 133 % of control
- survivor count (dose: 120.0 mg/kg/injection, schedule: Q01DX005 (ip), vehicle: other): 0 of 6
- survivor count (dose: 120.0 mg/kg/injection, schedule: Q01DX009 (ip), vehicle: water): 0 of 6
- survivor count (dose: 200.0 mg/kg/injection, schedule: Q01DX009 (ip), vehicle: other): 1 of 6
- survivor count (dose: 200.0 mg/kg/injection, schedule: Q01DX009 (ip), vehicle: water): 0 of 6
- survivor count (dose: 400.0 mg/kg/injection, schedule: Q01DX009 (ip), vehicle: other): 0 of 6

Structure (SMILES): COC(=O)C(C#N)=C(Cl)Cl
- survivor count (dose: 6.25 mg/kg/injection, schedule: Q01DX005 (ip), vehicle: Klucel (hydroxypropylcellulose) (HPC)): 6 of 6
- survivor count (dose: 12.5 mg/kg/injection, schedule: Q01DX005 (ip), vehicle: Klucel (hydroxypropylcellulose) (HPC)): 0 of 6
- survivor count (dose: 25.0 mg/kg/injection, schedule: Q01DX005 (ip), vehicle: Klucel (hydroxypropylcellulose) (HPC)): 0 of 6
- survivor count (dose: 50.0 mg/kg/injection, schedule: Q01DX005 (ip), vehicle: Klucel (hydroxypropylcellulose) (HPC)): 0 of 6
- survivor count (dose: 100.0 mg/kg/injection, schedule: Q01DX005 (ip), vehicle: Klucel (hydroxypropylcellulose) (HPC)): 0 of 6
- survivor count (dose: 200.0 mg/kg/injection, schedule: Q01DX005 (ip), vehicle: Klucel (hydroxypropylcellulose) (HPC)): 0 of 6

Structure (SMILES): CCCCCCCC(=O)NCCCC(C)Nc1cc(OC)cc2cccnc12 (stereo unspecified)
- survivor count [1]: 0 of 6

Structure (SMILES): C[C@@H](CN1CC(=O)NC(=O)C1)N1CC(=O)NC(=O)C1
- T/C (dose: 2.0 mg/kg/injection, schedule: Q01DX009 (ip), vehicle: Klucel (hydroxypropylcellulose) (HPC)): 143 % of control
- T/C (dose: 12.5 mg/kg/injection, schedule: Q01DX009 (ip), vehicle: Klucel (hydroxypropylcellulose) (HPC)): 147 and 148 % of control [4 of 6 alive]
- T/C (dose: 16.0 mg/kg/injection, schedule: Q01DX005 (ip), vehicle: suspension in saline): 128 % of control
- survivor count (dose: 25.0 mg/kg/injection, schedule: Q01DX009 (ip), vehicle: Klucel (hydroxypropylcellulose) (HPC)): 1 of 6
- T/C (dose: 32.0 mg/kg/injection, schedule: Q01DX005 (ip), vehicle: suspension in saline): 134 % of control
- T/C (dose: 37.5 mg/kg/injection, schedule: Q04DX003 (ip), vehicle: saline): 130 % of control
- T/C (dose: 64.0 mg/kg/injection, schedule: Q01DX005 (ip), vehicle: suspension in saline): 137 % of control
- T/C (dose: 64.0 mg/kg/injection, schedule: Q01DX005 (iv), vehicle: suspension in saline): 133 % of control
- T/C (dose: 75.0 mg/kg/injection, schedule: Q04DX003 (ip), vehicle: saline): 127 % of control
- T/C [3]: 148 % of control
- T/C (dose: 128.0 mg/kg/injection, schedule: Q01DX005 (iv), vehicle: suspension in saline): 130 and 144 % of control
- T/C (dose: 150.0 mg/kg/injection, schedule: Q04DX003 (ip), vehicle: saline): 133 % of control
- T/C (dose: 256.0 mg/kg/injection, schedule: Q01DX009 (ip), vehicle: Klucel (hydroxypropylcellulose) (HPC)): 135 % of control
- T/C (dose: 300.0 mg/kg/injection, schedule: Q04DX003 (ip), vehicle: saline): 137 % of control
- survivor count (dose: 400.0 mg/kg/injection, schedule: Q01DX009 (ip), vehicle: Klucel (hydroxypropylcellulose) (HPC)): 6 of 6
- survivor count (dose: 512.0 mg/kg/injection, schedule: Q01DX009 (ip), vehicle: Klucel (hydroxypropylcellulose) (HPC)): 6 of 6
- survivor count (dose: 800.0 mg/kg/injection, schedule: Q01DX009 (ip), vehicle: Klucel (hydroxypropylcellulose) (HPC)): 6 of 6
- T/C (dose: 1024.0 mg/kg/injection, schedule: Q01DX001 (ip), vehicle: Klucel (hydroxypropylcellulose) (HPC)): 138 % of control
- survivor count (dose: 1600.0 mg/kg/injection, schedule: Q01DX009 (ip), vehicle: Klucel (hydroxypropylcellulose) (HPC)): 1 of 6 and 2 of 6

Structure (SMILES): O=C1C2C3C=CC(C3)C2C(=O)N1CNc1ccc2nc(SC3C=CCCC3)sc2c1 (stereo unspecified)
- survivor count [3]: 6 of 6
